Reference: patent US20210317456
Negatives hold for the conditions tested. For part of these data: Construct, isoform or probe ends are uncertain for at least one entry.

Chains of the proteins cited; added tags and fusions are not shown. Chains listed by the source or under a name are the forms on record and can include a tag or linker.
IgG2-Fc (Homo sapiens), one chain, as listed by the source: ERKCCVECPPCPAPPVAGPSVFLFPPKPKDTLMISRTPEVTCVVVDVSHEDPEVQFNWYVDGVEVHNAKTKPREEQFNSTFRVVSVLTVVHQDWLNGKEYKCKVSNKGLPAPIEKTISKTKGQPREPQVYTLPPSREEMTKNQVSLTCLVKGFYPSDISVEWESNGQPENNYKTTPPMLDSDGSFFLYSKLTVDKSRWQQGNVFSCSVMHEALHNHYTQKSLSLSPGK
IgG4-Fc (Homo sapiens), one chain, as listed by the source: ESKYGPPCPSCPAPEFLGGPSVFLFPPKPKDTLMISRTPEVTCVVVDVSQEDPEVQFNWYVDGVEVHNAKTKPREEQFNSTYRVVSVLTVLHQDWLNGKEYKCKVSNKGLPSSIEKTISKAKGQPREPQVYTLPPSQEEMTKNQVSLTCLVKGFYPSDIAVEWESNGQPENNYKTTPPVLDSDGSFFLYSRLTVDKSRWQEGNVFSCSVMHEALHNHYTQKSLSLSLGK

Legend:
[1] = tested on: IgG1 (mouse) (Mus musculus); assay: pull-down; conditions: Protein L beads, single-stranded DNA
[2] = tested on: IgG2-Kappa (Homo sapiens); assay: pull-down; conditions: Protein L beads, single-stranded DNA
[3] = tested on: Total IgG (cow) (Bos taurus); assay: filter binding; conditions: Zorbax, SB18, 37 C, label: 32P, single-stranded DNA
IgG4-Fc (Homo sapiens) = assay: filter binding; conditions: n (P) = NapdU; Zorbax, SB18, 37 C; label: 32P; single-stranded DNA
IgD (Homo sapiens) = assay: filter binding; conditions: n (P) = NapdU; Zorbax, SB18, 37 C; label: 32P; single-stranded DNA
[4] = tested on: Total IgG (rabbit) (Oryctolagus cuniculus); assay: filter binding; conditions: n (P) = NapdU; Zorbax, SB18, 37 C; label: 32P; single-stranded DNA
[5] = tested on: Total IgG (sheep) (Ovis aries); assay: filter binding; conditions: Zorbax, SB18, 37 C, label: 32P, single-stranded DNA
[6] = tested on: Total IgG (monkey) (monkey); assay: filter binding; conditions: n (P) = NapdU; Zorbax, SB18, 37 C; label: 32P; single-stranded DNA
[7] = tested on: Total IgG (goat) (Capra hircus); assay: filter binding; conditions: Zorbax, SB18, 37 C, label: 32P, single-stranded DNA
IgG2-Fc (Homo sapiens) [8] = assay: filter binding; conditions: n (P) = NapdU; Zorbax, SB18, 37 C; label: 32P; single-stranded DNA
[9] = tested on: Total IgG (cow) (Bos taurus); assay: pull-down; conditions: P = NapdU, Zorbax beads, SB18, 37C, single-stranded DNA
[10] = tested on: Total IgG (rabbit) (Oryctolagus cuniculus); assay: pull-down; conditions: P = NapdU; Zorbax beads, SB18, 37C; single-stranded DNA; variant of 5406-56_3
[11] = tested on: Total IgG (sheep) (Ovis aries); assay: pull-down; conditions: P = NapdU, Zorbax beads, SB18, 37C, single-stranded DNA
[12] = tested on: Total IgG (goat) (Capra hircus); assay: pull-down; conditions: P = NapdU, Zorbax beads, SB18, 37C, single-stranded DNA
[13] = tested on: Total IgG (mouse) (Mus musculus); assay: pull-down; conditions: P = NapdU, Zorbax beads, SB18, 37C, single-stranded DNA
IgG2-Fc (Homo sapiens) [14] = assay: pull-down; conditions: P = NapdU; 37C, bead partitioning; single-stranded DNA; variant of 5406-56_3
IgM (cow) (Bos taurus) = assay: pull-down; conditions: P = NapdU, Zorbax beads, SB18, 37C, single-stranded DNA
[15] = n (P) = NapdU, SB17, 37 C, label: 32P
[16] = P = NapdU, SB17, 37C, variant of 5406-56_3

Measured: binding result

CCTCCATACGGTACGATTTTCAGTTGGATCCAGTACCTGGCTGGAGAGAA [5406-56_3]
no binding: [1]; [15] | [2]; [15] | [3]; n (P) = NapdU | IgG4-Fc (Homo sapiens) | IgD (Homo sapiens) | [4] | [5]; n (P) = NapdU | [6] | [7]; n (P) = NapdU | IgG2-Fc (Homo sapiens) [8]

CGGCACTCCACATCCAAGACTGCGGTTACCTTGTAGGCGATTATGGGCAG [5334-8_3]
no binding: [1]; n (P) = 2NapdU, SB17, 37 C, label: 32P | [3]; n (P) = 2NapdU | [5]; n (P) = 2NapdU | [7]; n (P) = 2NapdU

GCCTGCACGATGGCGAACTCCCTGAATGCTCTTGTCTTAAGTCCCCAACA [14125-144_3]
no binding: [1]; [15] | [3]; n (P) = NapdU | [5]; n (P) = NapdU | [7]; n (P) = NapdU

GGTACGATTTTCAGTTGGATCCAGTAC [5406-56_48]
no binding: [9]; variant of 5406-56_3 | [1]; [16] | [10] | [11]; variant of 5406-56_3 | [12]; variant of 5406-56_3 | [13]; variant of 5406-56_3 | IgG2-Fc (Homo sapiens) [14] | [2]; [16] | IgM (cow) (Bos taurus); variant of 5406-56_3

TGGCGAACTCCCTGAATGCTCTTGTCTT [14125-144_30]
no binding: [9]; variant of 14125-144_3 | [1]; P = NapdU, SB17, 37C, variant of 14125-144_3 | [11]; variant of 14125-144_3 | [12]; variant of 14125-144_3 | [13]; variant of 14125-144_3 | IgM (cow) (Bos taurus); variant of 14125-144_3
